Test results as given in the supplement of paper PMC4683952.
Structures can show the parent of a compound that is named as a salt. Hit rate of the full screen: of about 1,200 compounds, about 50 (4%) showed activity. Cut-off read from the data, not from the text of the source: all actives reach 1.3 or more but so do some inactives. Some of the results follow.

Test system: Lgr5 (MarsCy1-Lgr5-EGFP, U2OS)
Assay: cell-surface Lgr5 expression (SCi1 fluorescence, background-subtracted) relative to WT DMSO (fold of DMSO control); higher = more Lgr5 at the plasma membrane, active = hit call of the paper
Conditions: U2OS MarsCy1-Lgr5-EGFP stable; treatment time: overnight; 16 µM; library: Johns Hopkins Clinical Compound Library

cell-surface Lgr5 expression, inactive:
Cn1nnc2c(C(N)=O)ncn2c1=O [Temozolomide] 1.19
OC(CCN1CCCC1)(c1ccccc1)C1CCCCC1 (stereo not given) [Procyclidine] 0.518
CCCC(O)C(CC)CO (stereo not given) [Ethohexadiol (2-Ethyl-1,3-hexanediol)] 1.04
CC(C)C(=O)c1c(C(C)C)nn2ccccc12 [Ibudilast] 1.29
C[N+](C)(C)C[C@H](O)CC(=O)[O-] (racemic) [DL-Carnitine hydrochloride (Levocarnitine)] 1.15
CN(C)CCOC(c1ccccc1)c1ccc(Br)cc1 (stereo not given) [Bromodiphenhydramine hydrochloride] 1
CCN(CC)CCOC(=O)c1ccc(N)cc1 [Procaine hydrochloride] 0.937
CC[C@H](C)C(=O)O[C@H]1C[C@@H](C)C=C2C=C[C@H](C)[C@H](CC[C@@H]3C[C@@H](O)CC(=O)O3)[C@H]21 [Lovastatin (Mevinolin)] 1.02
CC(C)=CCC[C@](C)(O)[C@@H]1CC=C(C)CC1 [Alpha bisabolol] 1.11
[Na+].[O]=[Bi](=[O])[O-] [Sodium bismuthate] 0.965
CC(=O)N[C@@H](CS)C(=O)O [n-Acetyl-l-cysteine] 1.28
CC(=O)N[C@@H](CS)C(=O)O [Acetylcysteine (N-acetyl L-cysteine)] 1.18
COc1cc(C2Oc3cc([C@H]4Oc5cc(O)cc(O)c5C(=O)[C@@H]4O)ccc3OC2CO)ccc1O (stereo not given in full) [Silibinin] 1.08
COc1cc(C2Oc3cc([C@H]4Oc5cc(O)cc(O)c5C(=O)[C@@H]4O)ccc3OC2CO)ccc1O (stereo not given in full) [Silibinin (Silybin)] 1.23
CN(C)CCn1nnnc1SCC1=C(C(=O)O)N2C(=O)[C@@H](NC(=O)Cc3csc(N)n3)[C@H]2SC1 [Cefotiam hydrochloride] 1.01
CC(C)CCCC(C)N (stereo not given) [Octodrine (1,5 dimethyhexylamine)] 1.14
CNC[C@H](O)[C@@H](O)[C@H](O)[C@H](O)CO [Meglumine (N-Methyl-D-glucamine)] 1.21
N.N.O=C([O-])C[O-].[Pt+2] [Nedaplatin] 0.837
CC1=CC(=C(c2ccc(N)cc2)c2ccc(N)cc2)C=CC1=N [Basic fuchsin hydrochloride] 1.12
c1ccc2cc3ccccc3cc2c1 [Anthracene] 1.3

Reprinted at random: two records from the list.
cell-surface Lgr5 expression, inactive:
CCCC(O)C(CC)CO (stereo not given) [Ethohexadiol (2-Ethyl-1,3-hexanediol)] 1.04
COc1cc(C2Oc3cc([C@H]4Oc5cc(O)cc(O)c5C(=O)[C@@H]4O)ccc3OC2CO)ccc1O (stereo not given in full) [Silibinin (Silybin)] 1.23
